Results are given in words; binding and its absence hold for the method and conditions named. For some of these results: Binding seen in cells or lysates may run through a third protein. Some entries that bind do so weakly or less than the wild type.
Columns and labels:
[1] = biological target: FLAG-tagged ZNF224 (ZNF224-FLAG), pCAGGSc-ZNF224-FLAG (human) (UniProt Q9NZL3); experiment: co-IP with anti-FLAG antibody from transfected UM-UC-3 cells, blot with rabbit anti-DEPDC1 (FIG. 1B)
[2] = biological target: FLAG-tagged ZNF224 (ZNF224-FLAG), pCAGGSc-ZNF224-FLAG (human) (UniProt Q9NZL3); experiment: IP with anti-DEPDC1 polyclonal antibody, blot with anti-FLAGM2
[3] = biological target: endogenous zinc finger protein 224 (ZNF224) in UM-UC-3 bladder cancer cells (human) (UniProt Q9NZL3); experiment: immunoprecipitation of UM-UC-3 extracts with anti-DEPDC1 antibody, silver stain, MALDI-TOF
[4] = biological target: FLAG-tagged ZNF224 (ZNF224-FLAG), pCAGGSc-ZNF224-FLAG (human) (UniProt Q9NZL3); experiment: immunoprecipitation (FIG. 1B)

Chains of the proteins cited; added tags and fusions are not shown. Lines headed by an entry give the natural chain unless they say otherwise; changes in a name come on top.
UniProt Q9NZL3: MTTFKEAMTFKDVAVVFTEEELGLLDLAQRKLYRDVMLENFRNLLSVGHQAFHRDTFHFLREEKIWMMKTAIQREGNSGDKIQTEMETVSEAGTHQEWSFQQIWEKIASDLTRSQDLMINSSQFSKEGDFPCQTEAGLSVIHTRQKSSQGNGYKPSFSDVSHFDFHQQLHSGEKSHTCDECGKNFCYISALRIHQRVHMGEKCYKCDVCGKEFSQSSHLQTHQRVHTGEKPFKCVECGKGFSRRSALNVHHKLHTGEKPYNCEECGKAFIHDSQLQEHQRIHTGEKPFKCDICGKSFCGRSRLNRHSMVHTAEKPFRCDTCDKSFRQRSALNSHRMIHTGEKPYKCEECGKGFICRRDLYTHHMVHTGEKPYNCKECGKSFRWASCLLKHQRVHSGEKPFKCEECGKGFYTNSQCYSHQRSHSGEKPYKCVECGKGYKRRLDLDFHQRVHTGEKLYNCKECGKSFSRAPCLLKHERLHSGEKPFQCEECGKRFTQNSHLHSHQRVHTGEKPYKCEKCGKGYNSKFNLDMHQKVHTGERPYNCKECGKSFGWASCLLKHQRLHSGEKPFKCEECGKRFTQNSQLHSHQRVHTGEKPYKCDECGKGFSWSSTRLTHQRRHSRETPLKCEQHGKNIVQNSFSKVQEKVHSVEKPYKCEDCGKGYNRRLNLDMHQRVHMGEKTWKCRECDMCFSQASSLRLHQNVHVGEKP

Measured: binding

B1: endogenous DEPDC1 (DEP domain containing 1) in UM-UC-3 bladder cancer cells (protein)
chain: MESQGVPPGPYRATKLWNEVTTSFRAGMPLRKHRQHFKKYGNCFTAGEAVDWLYDLLRNNSNFGPEVTRQQTIQLLRKFLKNHVIEDIKGRWGSENVDDNNQLFRFPATSPLKTLPRRYPELRKNNIENFSKDKDSIFKLRNLSRRTPKRHGLHLSQENGEKIKHEIINEDQENAIDNRELSQEDVEEVWRYVILIYLQTILGVPSLEEVINPKQVIPQYIMYNMANTSKRGVVILQNKSDDLPHWVLSAMKCLANWPRSNDMNNPTYVGFERDVFRTIADYFLDLPEPLLTFEYYELFVNILVVCGYITVSDRSSGIHKIQDDPQSSKFLHLNNLNSFKSTECLLLSLLHREKNKEESDSTERLQISNPGFQERCAKKMQLVNLRNRRVSANDIMGGSCHNLIGLSNMHDLSSNSKPRCCSLEGIVDVPGNSSKEASSVFHQSFPNIEGQNNKLFLESKPKQEFLLNLHSEENIQKPFSAGFKRTSTLTVQDQEELCNGKCKSKQLCRSQSLLLRSSTRRNSYINTPVAEIIMKPNVGQGSTSVQTAMESELGESSATINKRLCKSTIELSENSLLPASSMLTGTQSLLQPHLERVAIDALQLCCLLLPPPNRRKLQLLMRMISRMSQNVDMPKLHDAMGTRSLMIHTFSRCVLCCAEEVDLDELLAGRLVSFLMDHHQEILQVPSYLQTAVEKHLDYLKKGHIENPGDGLFAPLPTYSYCKQISAQEFDEQKVSTSQAAIAELLENIIKNRSLPLKEKRKKLKQFQKEYPLIYQKRFPTTESEAALFGDKPTIKQPMLILRKPKFRSLR
binds: [1] | [2] | [3] | [4]
